# Data as given in PubChem BioAssay AID2685 (National Center for Advancing Translational Sciences (NCATS), 2010).
# Hit rate of the full screen: of about 320,000 compounds, about 2,100 (0.66%) were called active. Inconclusive results, whose numbers are uncertain, are shown with a selection of clear calls. Calls come from the whole dose curve; as a rule, active = well fitted inhibition curve with a large enough effect in the signal ratio, with a control signal flat (not every such curve was filed as active); inconclusive = small, poorly fitted or top-dose-only effect, or effect the other way, or a change in a side signal; inactive = flat fitted curve, though single readings scatter; the % refers to the signal ratio. A potency beside an inconclusive call is a rough fit, not a confirmed value.
# Assay: qHTS Assay for Lipid Storage Modulators in Drosophila S3 Cells
# Conditions: BODIPY lipid droplet fluorescence, 18-24 h, cells fed with added oleic acid; lipid storage change, negative = inhibition: at 46.1 µM (top of the series) unless noted
# Procedure, shortened: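 Laser-scanning cytometry quantifies lipid droplet accumulation (500–530 nm total intensity; droplet/cell object ratio) in oleic acid-fed (400 uM added) Drosophila S3 cells treated with a concentration series. 20 uM Triacsin C defined 100% inhibition.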
# % is set by controls: 0 for no effect and ±100 for the full control effect; potency is the fitted concentration of half-maximal effect.
SMILES,Potency,"lipid storage change, negative = inhibition"
COC(=O)c1cccc(N(CC(=O)NC2CCCC2)C(=O)CCC(=O)Nc2cc(C)on2)c1,"inconclusive: 6.51 µM [falling, single point]",
N#Cc1cc(-c2ccccc2)nc(Oc2ccccc2)n1,,inconclusive: -30.4%
CCc1ccc(C(=O)Nc2cc(C)ccc2F)s1,,inconclusive: -9.68% [at 9.22 µM]
NS(=O)(=O)c1ccc(CCNC(=O)CN2CCN(c3ccc(F)cc3)CC2)cc1,"inconclusive: 0.082 µM [falling, full curve, poor fit]",
CN(C)c1ccc(C=Nc2cnn(C)c2C(N)=O)cc1,,inconclusive: 26.8%
COc1ccc(NC(=O)CCCN2C(=O)C(c3ccccc3)Oc3cccnc32)cc1OC (stereo not drawn),"inconclusive: 2.59 µM [activator, partial curve, poor fit]",
COc1ccc(CNC(=O)C2CCCN(S(=O)(=O)c3cc(C)ccc3OC)C2)cc1 (stereo not drawn),,inconclusive: 25.2%
Cc1cc(C)cc(OC(=O)CCN2C(=O)C3C4C=CC(C5CC45)C3C2=O)c1 (stereo not drawn),"inconclusive: 0.164 µM [falling, full curve, poor fit]",
COc1ccc(C(=O)OCc2csc(C)n2)c(O)c1,,inconclusive: 69.5%
COc1ccc(Cl)cc1N(CC(=O)N/N=C/c1ccc(OCC(N)=O)cc1)S(C)(=O)=O,,inconclusive: 145%
Cn1c(SCC(=O)Nc2ccccc2Oc2ccccc2)nnc1C1CC1,,inconclusive: 0.766%
CCc1c(C)nc2c(-c3ccccc3)c[nH]n2c1=O,"inconclusive: 29.1 µM [activator, single point]",
COC(=O)CN(c1cc(OC)ccc1OC)S(=O)(=O)c1ccc(OC)c(OC)c1,,inconclusive: 15.7%
CCCCN(C)/C=N/c1c(C#N)cnn1-c1ccc(C)cc1,"inconclusive: 0.517 µM [falling, full curve]",
COc1ccc(N2CCN(C(=O)COC(=O)c3ccc(-n4nc(C)cc4C)cc3)CC2)cc1,"inconclusive: 2.06 µM [falling, partial curve]",
C/C(=N\OCc1ccccc1C#N)c1cc2ccccc2o1,,inconclusive: 40.5%
O=C(NNC(=S)NCc1ccccc1)c1ccc(Br)o1,,inconclusive: 0.759%
Clc1ccc(OCCn2cnc3ccccc32)c(Cl)c1,"inconclusive: 29.1 µM [falling, single point]",
CC(C)c1onc(C(=O)N2CCC(C(N)=O)CC2)c1[N+](=O)[O-],,inconclusive: -6.94%

SMILES,Potency,"lipid storage change, negative = inhibition"
CCCSc1nnc(CN2CCOCC2)n1C,"inconclusive: 29.1 µM [cytotoxic, single point]",
CC1CCN(c2ccc3nnc(CCC(=O)N4CCCCC4)n3n2)CC1,"inconclusive: 29.1 µM [activator, single point]",
CCCn1c(=N)n(CC(=O)c2ccc([N+](=O)[O-])cc2)c2ccccc21,,inconclusive: 20.2%
c1nc(NCC2(N3CCOCC3)CCCCC2)c2ccsc2n1,"inconclusive: 14.6 µM [falling, partial curve]",
COc1ccc(N2CC(C(=O)Nc3ncccc3C)CC2=O)cc1 (stereo not drawn),,inconclusive: 9.91%
N#Cc1ccc(OCC(=O)NCC2(N3CCCCC3)CCCCC2)cc1,,inconclusive: 37.2%
CCOc1ccc2ccccc2c1C(=O)NCC(c1ccc(N(C)C)cc1)N(C)C (stereo not drawn),"inconclusive: 29.1 µM [activator, partial curve, poor fit]",
CCN1C(=O)[C@@H]2[C@@H](c3ccc(-c4ccc(Cl)c(Cl)c4)c(OC)c3)N3CCCC[C@@]3(C(=O)OC)[C@@H]2C1=O,,inconclusive: -27.6%
O=C1CCc2ccc(NS(=O)(=O)c3ccc(F)cc3)cc2N1,,inconclusive: -22.2%
O=C(Nc1cccc(S(=O)(=O)N2CCOCC2)c1)C1CC(=O)N(c2ccc3c(c2)OCCO3)C1 (stereo not drawn),"inconclusive: 0.651 µM [falling, single point]",
Cc1cccc(NC(=O)/C=C/c2ccc([N+](=O)[O-])s2)c1,active: 20.6 µM,
O=C(CN1C(=O)NC2(CCCCCCC2)C1=O)N1CCOCC1,,inconclusive: -37.6%
COc1ccc(C2C(C#N)=C(N)N(c3ccccc3C#N)C3=C2C(=O)CCC3)cc1CN1CCCC1 (stereo not drawn),,inconclusive: 2.86%
COc1ccccc1NC(=O)CC1CCCC1,,inconclusive: 3.32%
CCCn1c2ccccc2c2cnn(CC(=O)N(CC)CC)c(=O)c21,,inconclusive: -1.02%
N=C1SCC(=O)N1c1ncc(Cc2ccc(F)cc2)s1,"inconclusive: 0.517 µM [falling, full curve, poor fit]",
COC(=O)c1ccc(N2CCS(=O)(=O)CC2)cc1,,inconclusive: 15.2%
CCCCn1c(N)c(N(CC(C)C)C(=O)CCNC(=O)c2ccc(Cl)cc2)c(=O)[nH]c1=O,,inconclusive
CCOc1cc2[nH]c(=O)n(CC3CCC(C(=O)NCCCOC)CC3)c(=O)c2cc1OCC (stereo not drawn),,inconclusive: 14.3%

# At a glance, part of the list above:
SMILES,Potency,"lipid storage change, negative = inhibition"
CC1CCN(c2ccc3nnc(CCC(=O)N4CCCCC4)n3n2)CC1,"inconclusive: 29.1 µM [activator, single point]",
CCCn1c(=N)n(CC(=O)c2ccc([N+](=O)[O-])cc2)c2ccccc21,,inconclusive: 20.2%
